Measurements from article doi:10.1101/2020.09.10.291369.

Molecular target: T1, LONP1^S855A (catalytic dead mutant of the LONP1 protease, traps substrates without degrading them) (UniProt P36776)
T1 sequence: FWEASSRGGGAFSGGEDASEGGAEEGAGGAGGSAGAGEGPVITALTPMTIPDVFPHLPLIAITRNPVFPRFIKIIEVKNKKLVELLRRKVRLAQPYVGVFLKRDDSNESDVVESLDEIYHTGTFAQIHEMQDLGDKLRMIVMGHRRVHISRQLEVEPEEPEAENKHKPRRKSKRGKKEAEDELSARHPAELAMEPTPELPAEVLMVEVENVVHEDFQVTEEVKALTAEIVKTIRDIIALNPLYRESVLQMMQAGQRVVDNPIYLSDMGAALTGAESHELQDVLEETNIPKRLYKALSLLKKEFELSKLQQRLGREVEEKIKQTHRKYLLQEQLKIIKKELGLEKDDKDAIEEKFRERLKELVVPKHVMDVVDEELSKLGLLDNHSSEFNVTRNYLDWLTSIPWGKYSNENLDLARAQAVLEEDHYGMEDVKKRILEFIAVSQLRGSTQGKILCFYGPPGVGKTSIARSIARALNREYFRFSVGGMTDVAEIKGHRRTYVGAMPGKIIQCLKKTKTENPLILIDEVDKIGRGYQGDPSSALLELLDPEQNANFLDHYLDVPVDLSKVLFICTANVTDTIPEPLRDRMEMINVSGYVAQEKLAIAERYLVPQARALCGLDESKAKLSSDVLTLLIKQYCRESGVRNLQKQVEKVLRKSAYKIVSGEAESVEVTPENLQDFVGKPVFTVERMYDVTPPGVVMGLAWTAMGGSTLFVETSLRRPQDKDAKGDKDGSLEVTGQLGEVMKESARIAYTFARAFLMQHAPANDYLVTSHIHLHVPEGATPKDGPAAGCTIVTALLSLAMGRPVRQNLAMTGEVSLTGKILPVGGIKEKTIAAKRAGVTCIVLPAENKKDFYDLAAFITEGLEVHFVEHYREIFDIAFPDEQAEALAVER
Test: SEC

binding: binds
Substance: POLγA^WT, catalytic subunit of the mitochondrial DNA polymerase gamma (mouse) (enzyme)

Results are given in words; binding and its absence hold for the method and conditions named. A result given as binding can be weak or reduced; the word gives no strength.
